Changes are numbered by the printed parent chain. No constants are given. Whether binding was seen depends on the method and setting. In cells and extracts the contact can be indirect. Some binding calls cover weakened binding; strength is not graded here. Tags and fused reporters may be left off the sequences shown.
How the values were obtained:
FAM46C^WT-GFP (human) [1] = molecular target: T1, FAM46C^WT-GFP (human) (UniProt Q5VWP2); test: co-IP; FAM46C^WT-GFP from transduced SKMM1 and H929 MM cell lines, western blot of BCCIPβ and PABPC1
T1 sequence: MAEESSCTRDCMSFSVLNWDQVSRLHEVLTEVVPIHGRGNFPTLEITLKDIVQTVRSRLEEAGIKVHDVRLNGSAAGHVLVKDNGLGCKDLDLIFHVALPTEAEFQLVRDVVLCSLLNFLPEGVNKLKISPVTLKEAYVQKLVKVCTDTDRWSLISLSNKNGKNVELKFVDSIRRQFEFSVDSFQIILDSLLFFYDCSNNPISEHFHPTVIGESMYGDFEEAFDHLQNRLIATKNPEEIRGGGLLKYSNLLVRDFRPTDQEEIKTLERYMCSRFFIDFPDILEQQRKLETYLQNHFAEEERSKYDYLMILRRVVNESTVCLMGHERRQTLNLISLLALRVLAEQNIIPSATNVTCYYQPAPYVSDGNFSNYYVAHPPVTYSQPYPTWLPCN

Amino acid sequences for entries named in this document (tags omitted).
UniProt P11940: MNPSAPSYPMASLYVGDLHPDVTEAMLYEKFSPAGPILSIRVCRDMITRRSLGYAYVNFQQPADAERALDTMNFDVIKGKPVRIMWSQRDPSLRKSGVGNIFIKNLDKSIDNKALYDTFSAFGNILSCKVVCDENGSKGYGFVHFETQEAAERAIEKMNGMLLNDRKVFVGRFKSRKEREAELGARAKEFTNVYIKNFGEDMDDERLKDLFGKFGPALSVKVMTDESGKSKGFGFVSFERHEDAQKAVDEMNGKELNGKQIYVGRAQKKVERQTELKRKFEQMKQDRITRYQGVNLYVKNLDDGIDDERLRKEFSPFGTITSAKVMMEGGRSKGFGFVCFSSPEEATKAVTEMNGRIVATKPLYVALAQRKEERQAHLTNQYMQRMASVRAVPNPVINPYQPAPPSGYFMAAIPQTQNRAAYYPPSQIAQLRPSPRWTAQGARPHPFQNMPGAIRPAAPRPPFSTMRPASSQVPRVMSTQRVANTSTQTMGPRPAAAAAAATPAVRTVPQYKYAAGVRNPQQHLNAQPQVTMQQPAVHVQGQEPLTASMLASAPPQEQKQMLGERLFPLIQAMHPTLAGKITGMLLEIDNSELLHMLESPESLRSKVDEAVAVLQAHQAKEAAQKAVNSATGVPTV

FAM46C^mut-GFP (human) = molecular target: T2, FAM46C^mut-GFP (human) (UniProt Q5VWP2); test: co-IP; GFP-tagged FAM46C from stable HEK293 cell lines, western blot of BCCIPβ and PABPC1; low ionic strength (physiological salt concentration)
T2 sequence: T1 sequence with D90A, D92A

FAM46C^WT-GFP (human) [2] = molecular target: T1, FAM46C^WT-GFP (human); test: as above
FAM46C^WT-GFP (human) [3] = molecular target: T1, FAM46C^WT-GFP (human); test: co-IP; GFP-tagged FAM46C from stable HEK293 cell lines, western blot of BCCIPβ and PABPC1; high ionic strength

binding (FAM46C^WT-GFP (human) [1]): binds
binding (FAM46C^mut-GFP (human)): binds
binding (FAM46C^WT-GFP (human) [2]): binds
Substance: cytoplasmic poly(A)-binding protein PABPC1 (from UniProt P11940 1-636)
binding (FAM46C^WT-GFP (human) [3]): no binding (condition: high ionic strength)

From publication PMC5606997
